PubChem BioAssay AID504786 | Drosophila RNAi Screening Center – 2011
The screen tested about 21,000 reagents; below is a random part of those that have a named target and a result. 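Primary screen; positive scores mean lost reporter signal, so the sign may be inverted from the usual convention.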 A slash parts repeat measurements. A plus sign joins genes that one reagent is predicted to hit. Further read-outs or replicates are left out here. No sequences are given here.

Test: 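Positive regulators of HIF-driven reporter output in Drosophila cells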 (primary screen)
System: Drosophila S2 cells with a stable HIF luciferase reporter
Reagents: long dsRNA against Drosophila genes, about 0.2 µg dsRNA per well of a 384-well plate
Duration: three days of knock-down, then 20 h of DFO before reading
Treatment: desferrioxamine (DFO) at 100 µM, an iron chelator that mimics hypoxia, for 20 h
Measured: 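HIF reporter luminescence in cells given 100 µM DFO for 20 h, using the mouse ldh-a hypoxia-response element, scored as per-plate z-scores; higher means greater loss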
Reading the numbers: z-score: higher = stronger loss of HIF reporter signal

The first 12 entries, to show the layout:
gene | PubChem SID | z-score, replicate 1 | z-score, replicate 2 | z-score, replicate 3
CG16852 | SID104181668 | 0 | -0.5 | –
Cpr65Ea | SID104190819 | -0.4 | -0.4 | –
ACOX1 | SID104185733 | -0.2 | 0 | –
Coq4 + Gorab + frc | SID104190175 | -0.2 | 0 | –
Ctr1A | SID104198128 | 2 | 0 | –
Eato | SID104181683 | -0.1 | -0.8 | –
Eato | SID104182853 | -0.1 | -0.7 | –
CG33500 | SID104188907 | -0.1 | -0.7 | –
CG33271 | SID104190375 | -0.4 | -1.1 | –
Or85a | SID104196556 | -0.3 | -0.1 | –
Prx4 | SID104188460 | -0.2 | -0.4 | –
Ir93a | SID104195004 | -0.3 | -0.6 | –

Main list, from the start:
gene | PubChem SID | z-score, replicate 1 | z-score, replicate 2 | z-score, replicate 3
CG16852 | SID104181668 | 0 | -0.5 | –
Cpr65Ea | SID104190819 | -0.4 | -0.4 | –
ACOX1 | SID104185733 | -0.2 | 0 | –
Coq4 + Gorab + frc | SID104190175 | -0.2 | 0 | –
Ctr1A | SID104198128 | 2 | 0 | –
Eato | SID104181683 | -0.1 | -0.8 | –
Eato | SID104182853 | -0.1 | -0.7 | –
CG33500 | SID104188907 | -0.1 | -0.7 | –
CG33271 | SID104190375 | -0.4 | -1.1 | –
Or85a | SID104196556 | -0.3 | -0.1 | –
Prx4 | SID104188460 | -0.2 | -0.4 | –
Ir93a | SID104195004 | -0.3 | -0.6 | –
Ir93a | SID104195005 | 0.9 | -0.3 | –
CG15043 | SID104199411 | -0.2 | 0 | –
HPS1 | SID104185987 | -0.2 | -0.3 | –
Srp14 | SID104195589 | 0.1 | 0.1 | –
Ttc7 | SID104184628 | 0 | 0 | –
CG10597 | SID104199149 | 0.1 | 0 | 0.5
Fibp | SID104190823 | -0.3 | -0.2 | –
Tl | SID104196677 | -0.3 | -0.1 | –
twy | SID104190354 | -0.3 | -0.6 | –
CG15865 | SID104199525 | -0.1 | -0.2 | –
CG8483 | SID104196222 | -0.4 | 0 | –
CG16813 | SID104182312 | -0.2 | -0.5 | –
CG15800 | SID104184063 | -0.3 | 0.1 | –
Tret1-1 | SID104186838 | 0 | -0.4 | –
Tret1-1 | SID104186840 | -0.2 | 0 | –
CG6204 | SID104195783 | -0.3 | -0.5 | –
Pif1A | SID104192500 | -0.4 | -0.2 | –
Pif1A | SID104194175 | 0.1 | -0.3 | –
Eo | SID104199979 | -0.2 | -0.9 | –
Gr94a | SID104193389 | 0.4 | 0.3 | –
ATPsynbeta | SID104196986 | 0.6 | 0 | –
btsz | SID104194774 | 0.6 | -0.9 | –
btsz | SID104196023 | 0 | 0.3 | –
Best3 | SID104189672 | -0.1 | 0.3 | –
eIF3i | SID104183256 | 6.1 / 6.1 / 6.5 | 6.5 / 6.4 | –
CG34051 | SID104181531 | -0.7 | 1.4 | 0.4
CG31855 | SID104182760 | -0.2 | -0.1 | –
CheB53b | SID104185405 | -0.1 | -0.3 | –
Dtwd2 + Obp84a | SID104192395 | -0.4 | 0.2 | –
CG2614 | SID104182503 | -0.3 | -0.2 | –
Ip259 | SID104183144 | 0.3 | 2 | –
Ir7f | SID104197804 | -0.3 | 0.2 | –
CG11885 | SID104180121 | -1.2 | -0.1 | –
ND-19 | SID104184196 | 0 | -0.1 | –
CG11811 | SID104189654 | -0.4 | -0.4 | –
pcx | SID104197978 | -0.3 | 0.1 | –
pcx | SID104197979 | -0.3 | 0.4 | –
pcx | SID104197980 | -0.3 | 0.4 | –
pcx | SID104197981 | -0.1 | 0.1 | –
pcx | SID104197982 | -0.2 | 0.4 | –
pcx | SID104198608 | -0.2 | -0.1 | –
Mettl14 | SID104182865 | -0.4 | -0.5 | –
tutl | SID104180233 | -0.2 | -0.2 | –
tutl | SID104180234 | -0.2 | -0.2 | –
tutl | SID104180235 | 0.1 | -0.1 | –
Cyp313a4 | SID104196419 | -0.3 | -0.7 | –
CG34268 | SID104187666 | -0.3 | -0.4 | –
CG2652 | SID104198293 | -0.2 | -0.4 | 0.3
l(1)G0004 | SID104200278 | -0.2 | 1.1 | –
Cpr47Ef | SID104186128 | -0.1 | -0.2 | –
gsb | SID104184484 | -0.4 | -0.6 | –
Paris | SID104180243 | -0.3 | 0 | –
Syx4 | SID104198378 | -0.3 | -1 | –
CG31204 | SID104194898 | -0.3 | 0.5 | –
CG31482 | SID104192374 | -0.3 | -0.1 | –
sisA | SID104200166 | -0.3 | -0.4 | –
Ugt303A1 | SID104195433 | -0.1 | 0 | –
Acsx1R | SID104194131 | -1.3 | -0.5 | –
CG42329 | SID104180165 | -0.3 | -0.5 | –
CG42329 | SID104180474 | -0.3 | -0.2 | –
CG34428 | SID104189911 | -0.1 | -0.2 | –
CG8119 | SID104199875 | -0.2 | -0.3 | –
RAF2 | SID104190235 | -0.5 | -0.4 | –
RAF2 | SID104190246 | -0.6 | -1.2 | –
link | SID104186160 | 0.5 | 1 | –
His3:CG33818 + His3:CG33857 + His3:CG33806 + 20 more | SID104201059 | – | 2.3 | –
PGRP-SB2 | SID104190884 | -0.2 | 0.4 | –
SF2 | SID104196637 | 5.4 | 3.2 | –
CG17107 | SID104182367 | 0 | 0.1 | -0.1
Gapdh2 | SID104200038 | -0.6 | -0.3 | –
Rpt2 | SID104196591 | 8.1 | 5.8 | –
CG9098 | SID104182928 | -0.2 | 0.9 | -0.4
CG32547 | SID104199055 | 0.1 | 0.2 | –
CG32547 | SID104199057 | -0.2 | 0 | –
CG32547 | SID104199266 | -0.4 | 0.2 | –
CG32547 | SID104199418 | 0.8 | 0 | –
FeCH | SID104196740 | 0.1 | -0.6 | –
Octbeta2R | SID104195142 | -0.5 | -0.7 | –
Octbeta2R | SID104195957 | -0.4 | -0.6 | –
wun2 | SID104187358 | -0.3 | -0.2 | –
Vha68-2 | SID104182513 | -0.4 | -0.6 | –
Dsor1 | SID104198254 | 2 | 2.3 | –
Gtpx | SID104188013 | -0.3 | -0.6 | –
wake | SID104195940 | -0.3 | -0.1 | –
wake | SID104195941 | -0.1 | -0.8 | –
sqd | SID104194952 | 0.7 | 0.2 | –
sqd | SID104196858 | -0.2 | 4.8 | –
CG42685 | SID104181763 | -0.2 | -0.1 | -0.2
CG34015 | SID104198932 | -0.5 | -0.4 | –
crok | SID104182385 | -0.3 | -0.3 | –
pHCl-2 | SID104194098 | 0.1 | 0.9 | –
Alg7 | SID104182625 | -0.3 | -0.1 | –
Alg7 | SID104182626 | -0.2 | 0.4 | –
Evi5 | SID104199213 | -0.3 | -0.1 | –
